According to the supplement of paper PMC8728848:
This is one part of the list.

Key:
Assay in all cases: glycan array binding signal (z-score within array); higher = stronger binding
Conditions in all cases: glycan notation: IUPAC condensed, linker removed
[1] = biological target: Gal(a1-3)Gal
Procedure, shortened: (§1)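 Arrays were curated from the Consortium for Functional Glycomics database, 3228 in total, and kept only where the protein sequence was available. Binding is expressed as a within-array Z-score. This score was averaged across arrays of the same protein sequence at different concentrations or buffers and across linkers, and negative values can be read as non-binding.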

[2] = biological target: Gal(a1-3)Gal(b1-3)GlcNAc
Procedure, shortened: as §1

[3] = biological target: Gal(a1-3)Gal(b1-3)GlcNAc(b1-2)Man
Procedure, shortened: as §1

[4] = biological target: Gal(a1-3)Gal(b1-3)GlcNAc(b1-2)Man(a1-3)[Gal(a1-3)Gal(b1-3)GlcNAc(b1-2)Man(a1-6)]Man(b1-4)GlcNAc(b1-4)GlcNAc
Procedure, shortened: as §1

[5] = biological target: Gal(a1-3)Gal(b1-3)GlcNAc(b1-3)GalNAc
Procedure, shortened: as §1

[6] = biological target: Gal(a1-3)Gal(b1-3)GlcNAc(b1-6)GalNAc
Procedure, shortened: as §1

[7] = biological target: Gal(a1-3)Gal(b1-3)[Fuc(a1-4)]GlcNAc(b1-2)Man(a1-3)[Gal(a1-3)Gal(b1-3)[Fuc(a1-4)]GlcNAc(b1-2)Man(a1-6)]Man(b1-4)GlcNAc(b1-4)GlcNAc
Procedure, shortened: as §1

[8] = biological target: Gal(a1-3)Gal(b1-4)Glc
Procedure, shortened: as §1

[9] = biological target: Gal(a1-3)Gal(b1-4)GlcNAc
Procedure, shortened: as §1

[10] = biological target: Gal(a1-3)Gal(b1-4)GlcNAc(b1-2)Man
Procedure, shortened: as §1

[11] = biological target: Gal(a1-3)Gal(b1-4)GlcNAc(b1-2)Man(a1-3)[Gal(a1-3)Gal(b1-4)GlcNAc(b1-2)Man(a1-6)]Man(b1-4)GlcNAc(b1-4)GlcNAc
Procedure, shortened: as §1

[12] = biological target: Gal(a1-3)Gal(b1-4)GlcNAc(b1-3)GalNAc
Procedure, shortened: as §1

[13] = biological target: Gal(a1-3)Gal(b1-4)GlcNAc(b1-6)GalNAc
Procedure, shortened: as §1

[14] = biological target: Gal(a1-3)Gal(b1-4)[Fuc(a1-3)]GlcNAc
Procedure, shortened: as §1

[15] = biological target: Gal(a1-3)Gal(b1-4)[Fuc(a1-3)]GlcNAc(b1-2)Man(a1-3)[Gal(a1-3)Gal(b1-4)[Fuc(a1-3)]GlcNAc(b1-2)Man(a1-6)]Man(b1-4)GlcNAc(b1-4)GlcNAc
Procedure, shortened: as §1

[16] = biological target: Gal(a1-3)GalNAc
Procedure, shortened: as §1

[17] = biological target: Gal(a1-3)[Gal(a1-4)]Gal(b1-4)GlcNAc
Procedure, shortened: as §1

[18] = biological target: Gal(a1-4)Gal(b1-3)GlcNAc(b1-2)Man(a1-3)[Gal(a1-4)Gal(b1-3)GlcNAc(b1-2)Man(a1-6)]Man(b1-4)GlcNAc(b1-4)GlcNAc
Procedure, shortened: as §1

[19] = biological target: Gal(a1-4)Gal(b1-4)Glc
Procedure, shortened: as §1

[20] = biological target: Gal(a1-4)Gal(b1-4)GlcNAc
Procedure, shortened: as §1

[21] = biological target: Gal(a1-4)Gal(b1-4)GlcNAc(b1-2)Man(a1-3)[Gal(a1-4)Gal(b1-4)GlcNAc(b1-2)Man(a1-6)]Man(b1-4)GlcNAc(b1-4)GlcNAc
Procedure, shortened: as §1

[22] = biological target: Gal(a1-4)Gal(b1-4)GlcNAc(b1-3)Gal(b1-4)Glc
Procedure, shortened: as §1

[23] = biological target: Gal(a1-4)GlcNAc
Procedure, shortened: as §1

[24] = biological target: Gal(a1-6)Glc
Procedure, shortened: as §1

[25] = biological target: Gal(b1-2)Gal
Procedure, shortened: as §1

[26] = biological target: Gal(b1-3)Gal
Procedure, shortened: as §1

[27] = biological target: Gal(b1-3)Gal(b1-4)GlcNAc
Procedure, shortened: as §1

[28] = biological target: Gal(b1-3)GalNAc
Procedure, shortened: as §1

[29] = biological target: Gal(b1-3)GalNAc(a1-3)[Fuc(a1-2)]Gal(b1-4)Glc
Procedure, shortened: as §1

[30] = biological target: Gal(b1-3)GalNAc(a1-3)[Fuc(a1-2)]Gal(b1-4)GlcNAc
Procedure, shortened: as §1

[31] = biological target: Gal(b1-3)GalNAc(b1-3)Gal
Procedure, shortened: as §1

[32] = biological target: Gal(b1-3)GalNAc(b1-3)Gal(a1-4)Gal(b1-4)Glc
Procedure, shortened: as §1

[33] = biological target: Gal(b1-3)GalNAc(b1-4)Gal(b1-4)Glc
Procedure, shortened: as §1

[34] = biological target: Gal(b1-3)GalNAc(b1-4)[Neu5Ac(a2-3)]Gal(b1-4)Glc
Procedure, shortened: as §1

[35] = biological target: Gal(b1-3)GlcNAc
Procedure, shortened: as §1

[36] = biological target: Gal(b1-3)GlcNAc(a1-3)Gal(b1-4)GlcNAc
Procedure, shortened: as §1

[37] = biological target: Gal(b1-3)GlcNAc(a1-6)Gal(b1-4)GlcNAc
Procedure, shortened: as §1

[38] = biological target: Gal(b1-3)GlcNAc(b1-2)Man
Procedure, shortened: as §1

B1: XTP3-B-MRH2 (Homo sapiens), Q96DZ1 (protein)
chain: EFLSGSYCFRGGVGWWKYEFCYGKHVHQYHEDKDSGKTSVVVGTWNQEEHIEWAKKNTARAYHLQDDGTQTVRMVSHFYGNGDICDITDKPRQVTVKLKCKESDSPHAVTVYMLEPHSCQYILGVESPVICKILDTA
- glycan array binding signal (z-score) [1]: 0.656
- glycan array binding signal (z-score) [2]: -0.706
- glycan array binding signal (z-score) [3]: -1.95
- glycan array binding signal (z-score) [4]: 0.762
- glycan array binding signal (z-score) [5]: -0.736
- glycan array binding signal (z-score) [6]: -0.122
- glycan array binding signal (z-score) [7]: 0.09
- glycan array binding signal (z-score) [8]: 0.965
- glycan array binding signal (z-score) [9]: -0.446
- glycan array binding signal (z-score) [10]: -1.61
- glycan array binding signal (z-score) [11]: -0.577
- glycan array binding signal (z-score) [12]: 0.202
- glycan array binding signal (z-score) [13]: -0.743
- glycan array binding signal (z-score) [14]: -0.893
- glycan array binding signal (z-score) [15]: 1.21
- glycan array binding signal (z-score) [16]: 1.74
- glycan array binding signal (z-score) [17]: 1.63
- glycan array binding signal (z-score) [18]: 0.355
- glycan array binding signal (z-score) [19]: 0.392
- glycan array binding signal (z-score) [20]: -0.24
- glycan array binding signal (z-score) [21]: 0.106
- glycan array binding signal (z-score) [22]: -0.362
- glycan array binding signal (z-score) [23]: -1.44
- glycan array binding signal (z-score) [24]: -0.776
- glycan array binding signal (z-score) [25]: -0.575
- glycan array binding signal (z-score) [26]: 0.943
- glycan array binding signal (z-score) [27]: -0.214
- glycan array binding signal (z-score) [28]: -0.133
- glycan array binding signal (z-score) [29]: -1.25
- glycan array binding signal (z-score) [30]: 0.353
- glycan array binding signal (z-score) [31]: -0.492
- glycan array binding signal (z-score) [32]: -0.32
- glycan array binding signal (z-score) [33]: -0.209
- glycan array binding signal (z-score) [34]: 0.148
- glycan array binding signal (z-score) [35]: -0.191
- glycan array binding signal (z-score) [36]: -1.67
- glycan array binding signal (z-score) [37]: -0.955
- glycan array binding signal (z-score) [38]: -0.037
